Results taken from publication doi:10.1101/2021.10.01.462752.

Sequences of proteins named here, by UniProt entry; tags and fusion partners are left off. A change or cut given only in a name is not applied to a line headed by its entry. A line that says so, or that is headed by a name, gives the form on record, which may keep a tag or linker.
FLAG-tagged Jade1S (murine) (Q6ZPI0, form named): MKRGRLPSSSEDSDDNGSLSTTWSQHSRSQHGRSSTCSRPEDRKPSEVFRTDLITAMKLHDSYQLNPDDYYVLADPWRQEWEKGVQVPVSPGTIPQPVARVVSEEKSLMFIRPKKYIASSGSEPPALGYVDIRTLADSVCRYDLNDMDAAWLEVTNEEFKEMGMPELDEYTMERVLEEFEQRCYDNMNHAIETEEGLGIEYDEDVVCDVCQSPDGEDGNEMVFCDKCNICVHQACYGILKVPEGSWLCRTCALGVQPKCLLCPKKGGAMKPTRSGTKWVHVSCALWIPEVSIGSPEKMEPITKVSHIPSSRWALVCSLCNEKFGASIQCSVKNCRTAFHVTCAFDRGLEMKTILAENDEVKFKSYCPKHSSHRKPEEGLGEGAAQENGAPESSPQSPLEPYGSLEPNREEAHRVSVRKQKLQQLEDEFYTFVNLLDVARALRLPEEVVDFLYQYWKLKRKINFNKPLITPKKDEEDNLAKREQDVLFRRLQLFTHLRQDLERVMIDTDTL
UniProt Q9R1P4: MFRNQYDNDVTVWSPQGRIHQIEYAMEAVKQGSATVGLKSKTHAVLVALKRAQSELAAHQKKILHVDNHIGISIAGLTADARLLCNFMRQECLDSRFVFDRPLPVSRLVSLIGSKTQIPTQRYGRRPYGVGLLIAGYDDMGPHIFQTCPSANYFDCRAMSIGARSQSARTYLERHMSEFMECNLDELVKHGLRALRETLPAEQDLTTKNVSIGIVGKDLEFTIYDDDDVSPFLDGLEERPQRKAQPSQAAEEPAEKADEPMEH

Biological target: FLAG-tagged Jade1S (murine) (mouse) (UniProt Q6ZPI0)
Experiment: affinity purification with mass spectrometry

Question: For PSMA1 (from UniProt Q9R1P4 1-263), which binding is on record?
Answer: binds

No constants are given. Whether binding was seen depends on the method and setting. In cells and extracts the contact can be indirect. These calls come from enrichment with a bait or labelling near it, and not all partners need be listed.
